Measurements published in article PMC11853559, “α-Synuclein Iron-Responsive-Element RNA and Iron Regulatory Protein Affinity Is Specifically Reduced by Iron in Parkinson’s Disease”.
For at least one entry, the source does not settle the construct or the ends of the probe. Where a protein sequence is shown, tags need not be part of it.

Columns and labels:
[1] = biological target: T1, Iron regulatory protein 1 (IRP1) (UniProt P21399); assay: fluorescence quenching (intrinsic); settings: 50 uM Fe2+, 20 mM HEPES pH 7.4, 100 mM KCl, 1 mM MgCl2, 50 nM IRP1, 0-200 nM RNA, 15 min, 25 °C (5-30 °C series), Fe2+ 50 uM anaerobic where stated, commercial protein
T1 sequence (looked up, limits assumed): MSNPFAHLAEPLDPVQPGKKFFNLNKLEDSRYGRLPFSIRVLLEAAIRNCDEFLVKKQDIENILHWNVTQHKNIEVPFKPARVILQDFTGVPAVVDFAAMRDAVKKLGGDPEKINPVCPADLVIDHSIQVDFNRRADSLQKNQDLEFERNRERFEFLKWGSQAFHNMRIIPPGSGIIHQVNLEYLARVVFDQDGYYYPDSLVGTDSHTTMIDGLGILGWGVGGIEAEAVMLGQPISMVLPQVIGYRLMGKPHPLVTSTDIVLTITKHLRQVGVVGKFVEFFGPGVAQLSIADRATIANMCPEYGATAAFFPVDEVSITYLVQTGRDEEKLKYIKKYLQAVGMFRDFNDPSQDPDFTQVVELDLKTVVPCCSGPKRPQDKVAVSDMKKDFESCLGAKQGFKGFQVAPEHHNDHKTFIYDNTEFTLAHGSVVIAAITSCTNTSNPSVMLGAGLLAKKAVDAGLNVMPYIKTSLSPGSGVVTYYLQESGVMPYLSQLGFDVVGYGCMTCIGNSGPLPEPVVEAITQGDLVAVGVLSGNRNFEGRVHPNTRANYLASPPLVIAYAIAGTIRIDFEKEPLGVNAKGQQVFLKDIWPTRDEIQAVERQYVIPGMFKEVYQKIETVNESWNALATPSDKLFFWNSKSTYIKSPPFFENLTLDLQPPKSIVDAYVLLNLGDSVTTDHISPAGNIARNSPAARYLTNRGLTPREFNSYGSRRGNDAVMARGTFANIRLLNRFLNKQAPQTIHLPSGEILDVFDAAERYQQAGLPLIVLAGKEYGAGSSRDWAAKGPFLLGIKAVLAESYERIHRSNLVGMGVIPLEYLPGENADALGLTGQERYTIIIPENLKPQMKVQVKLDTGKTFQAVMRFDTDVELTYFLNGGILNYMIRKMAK

[2] = biological target: T1, Iron regulatory protein 1 (IRP1); assay: fluorescence quenching, Scatchard; settings: 50 uM Fe2+, 25 °C; 20 mM HEPES pH 7.4, 100 mM KCl, 1 mM MgCl2; 50 nM IRP1, 0-200 nM RNA; 15 min; 25 °C (5-30 °C series); Fe2+ 50 uM anaerobic where stated; commercial protein

ACUGGGAGUGGCCAUUCGACGACAGUGUGGUGUAAAGGAAUUCAUUAGCC [alpha-Syn IRE RNA (SNCA 5'-UTR)]
Kd ([1]; 5 °C): 29.6 nM | Kd ([1]; 10 °C): 54.4 nM | Kd ([1]; 15 °C): 88.7 nM | Kd ([1]; 20 °C): 124 nM | Kd ([1]; 30 °C): 199 nM | Kd ([1]; anaerobic, 25 °C): 157 nM | Ka [2]: 6.4 10^6 M-1
